Data from the supplement of paper PMC4604168 (melanoma cell lines).
The other results are listed elsewhere or left out. Single values are uncertain, as repeats are few or missing.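 Cells were imaged in 1,536-well plates, and nuclei stained with an antibody against cleaved PARP were counted against all DNA-stained nuclei to give the apoptosis fraction. Screening doses were chosen to leave most cells alive, and resting and induced cleaved-PARP levels differ strongly between cell lines.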

Each molecule was assayed on WM451Lu (assay: cleaved PARP positive nuclei fraction relative to DMSO control; melanoma cells; higher = more apoptosis). Details: library dose: low library concentration; 72 h.

Row | Compound | cleaved PARP positive nuclei fraction
1 | N#CC[C@H](C1CCCC1)n1cc(-c2ncnc3[nH]ccc23)cn1 [ruxolitinib] + CO[C@@H]1[C@H](N(C)C(=O)c2ccccc2)C[C@H]2O[C@]1(C)n1c3ccccc3c3c4c(c5c6ccccc6n2c5c31)C(=O)NC4 [Midostaurin] (first compound 1 µM, partner dose 0.08 µM) | 179%
2 | Cc1cc(Nc2cc(N3CCN(C)CC3)nc(Sc3ccc(NC(=O)C4CC4)cc3)n2)n[nH]1 [Tozasertib] + NC1(c2ccc(-c3nc4ccn5c(=O)[nH]nc5c4cc3-c3ccccc3)cc2)CCC1 [MK2206] (first compound 0.006 µM, partner dose 0.4 µM) | 34%
3 | Cc1ccc(Nc2nccc(N(C)c3ccc4c(C)n(C)nc4c3)n2)cc1S(N)(=O)=O [Pazopanib] + Cc1cc([N+](=O)[O-])ccc1NS(=O)(=O)c1cc(Cl)ccc1Cl [FH535] (first compound 0.4 µM, partner dose 1 µM) | 56.8%
4 | O=C(Nc1cc(C(F)(F)F)cc(C(F)(F)F)c1)c1cc(Cl)ccc1O + CC(C)CCN1c2nc(Nc3cc(F)c(O)c(F)c3)ncc2N(C)C(=O)C1C [BID1870] (first compound 0.016 µM, partner dose 0.2 µM) | 198%
5 | N#CC[C@H](C1CCCC1)n1cc(-c2ncnc3[nH]ccc23)cn1 [ruxolitinib] + CCCS(=O)(=O)Nc1ccc(F)c(C(=O)c2c[nH]c3ncc(Cl)cc23)c1F [PLX4720] (first compound 1 µM, partner dose 0.08 µM) | 492%
6 | Cc1cn(-c2cc(NC(=O)c3ccc(C)c(Nc4nccc(-c5cccnc5)n4)c3)cc(C(F)(F)F)c2)cn1 [nilotinib] + Nc1ncn([C@H]2C[C@H](O)[C@@H](CO)O2)c(=O)n1 [decitabine] (first compound 0.2 µM, partner dose 0.1 µM) | 61.3%
7 | O=c1[nH]nc(Sc2ncc([N+](=O)[O-])s2)n1-c1ccc2c(c1)OCCO2 + OCCn1cc(-c2cnc3nnn(Cc4ccc5ncccc5c4)c3n2)cn1 [PF04217903] (first compound 0.2 µM, partner dose 1 µM) | 77.4%
8 | Cc1ccc(Nc2nccc(N(C)c3ccc4c(C)n(C)nc4c3)n2)cc1S(N)(=O)=O [Pazopanib] + N#Cc1c(O)c2c(-c3ccc(-c4ccccc4O)cc3)csc2[nH]c1=O [A769662] (first compound 0.4 µM, partner dose 2 µM) | 93.4%
9 | Cc1ccc(Nc2nccc(N(C)c3ccc4c(C)n(C)nc4c3)n2)cc1S(N)(=O)=O [Pazopanib] + CCc1ccc(CCOc2ccc(CC3SC(=O)NC3=O)cc2)nc1 [pioglitazone] (first compound 0.4 µM, partner dose 2 µM) | 48.2%

Looked up above.
Cc1ccc(Nc2nccc(N(C)c3ccc4c(C)n(C)nc4c3)n2)cc1S(N)(=O)=O [Pazopanib] + CCc1ccc(CCOc2ccc(CC3SC(=O)NC3=O)cc2)nc1 [pioglitazone] (first compound 0.4 µM, partner dose 2 µM) | cleaved PARP positive nuclei fraction: 48.2%
Cc1cn(-c2cc(NC(=O)c3ccc(C)c(Nc4nccc(-c5cccnc5)n4)c3)cc(C(F)(F)F)c2)cn1 [nilotinib] + Nc1ncn([C@H]2C[C@H](O)[C@@H](CO)O2)c(=O)n1 [decitabine] (first compound 0.2 µM, partner dose 0.1 µM) | cleaved PARP positive nuclei fraction: 61.3%
